Measurements as given in publication PMC10709454.
Results are given in words; binding and its absence hold for the method and conditions named. In cells and extracts the contact can be indirect. A yes stands for co-enrichment or nearness to the bait. Other partners may have been found.

The chains behind the UniProt entries cited, without tags or fusion partners.
UniProt P45974: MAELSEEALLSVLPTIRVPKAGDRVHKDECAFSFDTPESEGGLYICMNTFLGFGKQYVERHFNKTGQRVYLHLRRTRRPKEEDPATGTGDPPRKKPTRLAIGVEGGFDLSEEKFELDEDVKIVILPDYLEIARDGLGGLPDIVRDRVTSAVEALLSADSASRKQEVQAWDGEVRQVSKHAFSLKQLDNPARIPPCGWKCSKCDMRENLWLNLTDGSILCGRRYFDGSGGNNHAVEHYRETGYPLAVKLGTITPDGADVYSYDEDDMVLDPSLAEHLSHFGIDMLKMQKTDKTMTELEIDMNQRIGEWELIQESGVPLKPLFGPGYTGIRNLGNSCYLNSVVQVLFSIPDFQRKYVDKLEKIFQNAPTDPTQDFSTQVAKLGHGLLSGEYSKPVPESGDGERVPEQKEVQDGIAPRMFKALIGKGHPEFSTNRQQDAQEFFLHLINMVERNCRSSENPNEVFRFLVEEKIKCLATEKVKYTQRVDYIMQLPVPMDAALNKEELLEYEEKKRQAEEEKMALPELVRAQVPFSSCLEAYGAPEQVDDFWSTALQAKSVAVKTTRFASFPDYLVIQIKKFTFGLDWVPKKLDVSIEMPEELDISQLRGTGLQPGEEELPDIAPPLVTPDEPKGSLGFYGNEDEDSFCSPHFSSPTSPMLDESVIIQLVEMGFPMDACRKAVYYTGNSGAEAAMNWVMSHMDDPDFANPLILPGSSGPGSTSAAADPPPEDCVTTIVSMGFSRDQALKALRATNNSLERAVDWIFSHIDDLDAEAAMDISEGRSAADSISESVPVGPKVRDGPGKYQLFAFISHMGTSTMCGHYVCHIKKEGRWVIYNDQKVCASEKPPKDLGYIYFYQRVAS

Molecular target: T1, common cytokine receptor γ chain (human (endogenous in Jurkat)) (UniProt P31785)
T1 sequence: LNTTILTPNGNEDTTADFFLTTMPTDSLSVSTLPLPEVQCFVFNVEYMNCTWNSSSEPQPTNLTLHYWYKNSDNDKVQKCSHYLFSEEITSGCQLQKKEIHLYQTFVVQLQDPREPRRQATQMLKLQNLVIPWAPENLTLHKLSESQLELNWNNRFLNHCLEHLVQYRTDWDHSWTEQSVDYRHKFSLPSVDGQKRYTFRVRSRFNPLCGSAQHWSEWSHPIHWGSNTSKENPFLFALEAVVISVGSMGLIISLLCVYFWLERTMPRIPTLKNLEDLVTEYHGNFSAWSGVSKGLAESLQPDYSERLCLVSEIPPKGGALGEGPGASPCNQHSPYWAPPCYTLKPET
Experiment: affinity purification with mass spectrometry; Jurkat cells (1 × 10^8); endogenous γc immunoprecipitated with anti-γc, desalted, analyzed by mass spectrometry

Question: “SHP2 (from UniProt Q06124 1-593) (enzyme)” was tested. Which binding did it give?
Answer: The binding was “binds”.

Question: For “USP5 (from UniProt P45974 1-858) (enzyme)”, which binding is on record?
Answer: The binding was “binds”.
